Results published in PubChem BioAssay AID1347076 (National Center for Advancing Translational Sciences (NCATS), 2019).
Screen size: about 400,000 compounds; about 13,000 (3.2%) were called active. The inconclusive results got no clear call from the source; some entries with a clear call stand among them for comparison. The call rests on the fitted dose curve; in most records, active means well fitted cell-killing curve with a large enough effect; inconclusive means small, poorly fitted or top-dose-only effect, or effect the other way; inactive means flat fitted curve, though single readings scatter. Potencies of inconclusive entries are doubtful fits and often do not repeat.

Assay: qHTS assay for MDR1-selective chemotherapeutics: Primary screen using the drug-selected MDR subline cells KB-V1; further: nearly all actives have a fitted effect of over 60% in size
Settings: KB-V1 MDR cells viability, CellTiter-Glo, 72 h; activity change, negative = cytotoxicity: at 46.1 µM (top of the series)
How it was run: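 Compound-treated KB-V1 multidrug-resistant cells, 72 h, 37 degrees C; viability by CellTiter-Glo. Fitted qHTS curves give the values.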
On the % scale 0 is the no-effect control and ±100 the full control effect; potency means the concentration at half of the fitted maximal effect.

Structure (SMILES)	Potency	activity change, negative = cytotoxicity
CSc1ccc(CN2CCCC(CNC(=O)c3ccc(F)cc3)C2)cc1 (centres undefined)	inconclusive: 11.6 µM [cytotoxic, partial curve]	
COc1ccc(C(=O)NC(=S)Nc2ccc(Cc3ccncc3)cc2)cc1	inconclusive: 29.1 µM [cytotoxic, single point]	
CCCCCCCc1c(O)nc(SCC(=O)O)[nH]c1=O		inactive: 19.7%
CCOc1cc(CNCCCN2CCOCC2)cc(Br)c1OCC(=O)Nc1cccc(C(F)(F)F)c1	inconclusive: 29.1 µM [cytotoxic, single point]	
COc1ccc2[nH]c3c(c2c1)CCN1C(=O)C(CC(=O)NCC24CC5CC(CC(C5)C2)C4)C[C@H](C(=O)N(C(C)C)C(C)C)[C@@]31C (some centres undefined)	inconclusive: 29.1 µM [cytotoxic, single point]	
Cc1ccc(NC(=O)CSc2nc3ccc(Nc4nc(N5CCOCC5)nc(N5CCOCC5)n4)cc3s2)cc1	inconclusive: 18.4 µM [cytotoxic, single point]	
COc1ccc(CNC(=O)Nc2nc(C(N)Cc3ccc(Cl)cc3)cs2)cc1 (centres undefined)	inconclusive: 23.1 µM [cytotoxic, single point]	
CC1CCN(Cc2nnnn2CCCC(=O)NC(c2ccccn2)C(F)(F)F)CC1 (centres undefined)		inconclusive: -31.9%
Cc1cccc(C)c1NC(=O)Cn1c(=O)c2cccn2c2ccccc21		inactive: 1.32%
COc1cc(C)c(S(=O)(=O)NOCc2ccc([N+](=O)[O-])cc2)c(C)c1C	inconclusive: 29.1 µM [cytotoxic, single point]	
COc1cccc(NC(=O)NC2(C(=O)N3CCC(O)CC3)CCCCC2)c1	inconclusive: 29.1 µM [rising, single point]	
O=C(CN1CCCC1)Nc1ccc(F)c(Cl)c1	inconclusive: 16.4 µM [rising, single point]	
Cc1ccc(S(=O)(=O)CC(=O)Nc2nc3c(C)cccc3s2)cc1		inactive: 4.02%
Cc1cccc(CC(=O)NCCS(=O)(=O)N2CCN(c3cccc(Cl)c3)CC2)c1	inconclusive: 25.9 µM [cytotoxic, single point]	
Cc1cc(C(=S)N2CCOCC2)c(C)n1-c1ccc(Cl)cc1	inconclusive: 13 µM [cytotoxic, partial curve, poor fit]	
COc1ccc(N=C2NC(=O)S/C2=C\c2ccc(N(C)C)cc2)cc1		inactive: -6.44%
Cc1nc2c(OCc3cccc(Cl)c3)cccn2c1N(C)Cc1cccs1	active: 18.4 µM	
O=C(Nc1ccc(-c2nc3cccnc3s2)cc1)C1CCCO1 (centres undefined)		inactive: -3.99%
CSc1ccc(/C=C/c2nc3ccccc3n2S(=O)(=O)c2ccc(Br)cc2)cc1	inconclusive: 18.4 µM [cytotoxic, single point]	

Exported in markdown: two of the compounds above.

| Structure (SMILES) | Potency | activity change, negative = cytotoxicity |
| --- | --- | --- |
| Cc1ccc(S(=O)(=O)CC(=O)Nc2nc3c(C)cccc3s2)cc1 |  | inactive: 4.02% |
| Cc1cccc(CC(=O)NCCS(=O)(=O)N2CCN(c3cccc(Cl)c3)CC2)c1 | inconclusive: 25.9 µM [cytotoxic, single point] |  |
